Assay results from PMC12241124 (Frontiers in Microbiology, 2025).
End groups of sequences in plain letters are not given here.

Assay: peptide made by a vendor
Settings: whole synthesis, high-performance liquid chromatography, several disulfide bridges, sequence written open

Sequence: GFGCNGPWNEDDLRCHNHCKSIKGYKKKYCAKGGFVCKC
- final HPLC purity: >97%
